According to PMC11054291:
These are yes or no findings as the source states them, for the method shown. Binding can be weak; no strength is given. Tags and fused reporters may be left off the sequences shown. For some assays here: In cells and extracts the contact can be indirect.

Experiments:
Flag-ELP3 = target: T1, Flag-ELP3 (UniProt Q9H9T3); assay: co-IP; two tagged proteins co-transfected into HEK-293T cells (control cells; for Flag-ELP3 with HA-c-Myc also ELP4-knockdown or ELP5-knockdown cells); IP with anti-Flag M2 beads or anti-HA with A/G beads, 3 h; lysis buffer 20 mM Tris–HCl pH 7.4, 150 mM NaCl, 1% Triton; immunoblot for the other tag
T1 sequence: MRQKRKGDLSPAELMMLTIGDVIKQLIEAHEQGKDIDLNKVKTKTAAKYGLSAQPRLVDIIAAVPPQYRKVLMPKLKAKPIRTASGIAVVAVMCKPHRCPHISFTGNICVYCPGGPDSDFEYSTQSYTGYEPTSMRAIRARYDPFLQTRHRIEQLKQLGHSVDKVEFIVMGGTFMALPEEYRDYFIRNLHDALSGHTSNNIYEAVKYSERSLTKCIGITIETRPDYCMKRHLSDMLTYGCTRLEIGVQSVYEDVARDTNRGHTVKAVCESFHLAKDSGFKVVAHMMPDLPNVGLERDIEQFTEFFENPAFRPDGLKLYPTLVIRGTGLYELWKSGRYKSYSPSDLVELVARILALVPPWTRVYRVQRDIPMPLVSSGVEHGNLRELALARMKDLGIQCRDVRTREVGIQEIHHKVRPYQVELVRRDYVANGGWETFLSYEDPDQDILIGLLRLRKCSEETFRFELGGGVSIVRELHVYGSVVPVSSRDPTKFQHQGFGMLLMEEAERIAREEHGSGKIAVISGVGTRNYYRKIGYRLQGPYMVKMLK

GST-ELP3 1–81 = target: T2, GST-ELP3 1–81 (UniProt Q9H9T3); assay: pull-down; GST-ELP3 1–81 (GST as control) incubated with MBP-His-c-Myc 1–143 for 3 h at 4°C in 50 mM Tris–HCl pH 7.6, 120 mM NaCl, 5 mM MgCl2, 0.5% NP-40, 1 mM EDTA, then glutathione sepharose beads; SDS–PAGE and Coomassie staining; both purified
T2 sequence: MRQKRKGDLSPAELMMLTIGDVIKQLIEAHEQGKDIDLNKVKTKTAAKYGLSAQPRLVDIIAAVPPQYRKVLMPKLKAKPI

| Substance | binding (Flag-ELP3) | binding (GST-ELP3 1–81) |
| --- | --- | --- |
| HA-c-Myc T58A | binds | – |
| HA-c-Myc S62A | binds | – |
| HA-c-Myc T244A | binds | – |
| HA-c-Myc T58A/S62A | binds | – |
| MBP-His-c-Myc 1–143 (domain or fragment) | – | binds |
